# Article PMC7819943, “Rice protein-binding microarrays: a tool to detect cis-acting elements near promoter regions in rice”
# Sequences of proteins named here, by UniProt entry; tags and fusion partners are left off.
# UniProt Q0JBA9, entry or part of it: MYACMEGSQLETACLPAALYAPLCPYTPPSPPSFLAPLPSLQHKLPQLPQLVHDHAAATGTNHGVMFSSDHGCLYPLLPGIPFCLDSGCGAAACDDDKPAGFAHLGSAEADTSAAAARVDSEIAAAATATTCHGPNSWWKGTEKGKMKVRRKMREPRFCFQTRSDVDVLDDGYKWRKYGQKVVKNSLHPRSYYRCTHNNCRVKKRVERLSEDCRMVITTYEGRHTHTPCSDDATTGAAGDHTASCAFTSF
# The list shows a part of the results.
# Biological target: OsWRKY34 (Oryza sativa, UniProt Q0JBA9 1-250)
# Assay: protein-binding microarray (RPBM); PBS, 2% BSA, 51.3 ng/ul salmon testes DNA, 50 uM zinc acetate, 200 nM TF, 25 C, 1 h; high values mean tight binding
# Conditions: protein: recombinant; tags: N-terminal polyhistidine and DsRed monomer fusion (pET32a); label: CyDye5-dUTP incorporated in the synthesized complementary strand; 3' TTTTT single-stranded linker to array surface; dsDNA, one strand shown
# Summary of the method: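 A custom Agilent array was converted to double-stranded form by primer extension with Cy5-dUTP and blocked with 2% BSA. Protein at 200 nM in PBS with 2% BSA, salmon testes DNA and 50 µM zinc acetate was applied for 1 h at 25 °C, followed by washing. The proteins were polyhistidine–DsRed N-terminal fusions of transcription factors, expressed in E. coli BL21-CodonPlus and Ni–NTA-purified. The binding signal is per-feature fluorescence intensity (arbitrary units) from an Axon 4000B scanner.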
row,Sequence,binding signal
1,GTCAAACTAGCCACATCAGCGCCACATCAGTCAAAACCGCCGGAGTCACCTAGTGCAG,8320 fluorescence intensity (a.u.)
2,ATTTTTTCTGTGTTTTGTAATTCTCTGTTTTACACTTCAACGGAGTCACCTAGTGCAG,10000 fluorescence intensity (a.u.)
3,CCATCAATACAATCCCAACTGAGTTTATTGTATTTTTTTTCGGAGTCACCTAGTGCAG,8050 fluorescence intensity (a.u.)
4,CCCGTTTTCACCCCTAGTTGTGGGCATTGTTTTTCTCATTCGGAGTCACCTAGTGCAG,10500 fluorescence intensity (a.u.)
5,GTGTCAATTATTCGATGGGTGGGAATATTTATTTAACATTCGGAGTCACCTAGTGCAG,9250 fluorescence intensity (a.u.)
6,TTCACTATTGGGTGTTTTTGTCTCGATTCACCTTCATCGTCGGAGTCACCTAGTGCAG,8840 fluorescence intensity (a.u.)
7,ATCCCTAAACCACAATACCACATATGTCGATACCTCAACTCGGAGTCACCTAGTGCAG,9100 fluorescence intensity (a.u.)
8,TTGGGGTCGAGATATCCGGTTTTGTGGTTTAGGGTCATGTCGGAGTCACCTAGTGCAG,9090 fluorescence intensity (a.u.)
9,GAGCACGCCACCGCTGGCCGCCGTCCTTGGCTAGTCGACTCGGAGTCACCTAGTGCAG,8060 fluorescence intensity (a.u.)
10,TGGGGTATCTAGTCAATCATACAATATTTTGTTTTGCTAACGGAGTCACCTAGTGCAG,8460 fluorescence intensity (a.u.)
11,TCTCTCTCTCTCTCTCTCTCGTGCGGCGAGCCACCGGAATCGGAGTCACCTAGTGCAG,8190 fluorescence intensity (a.u.)
12,TTGTTGGTTGCCCTATCAATCGGAACGTCCGCGTCAGACTCGGAGTCACCTAGTGCAG,8680 fluorescence intensity (a.u.)
13,ATGATCAGCTGCTGTGGCCGTCCTTTCTTTGCGATGATGTCGGAGTCACCTAGTGCAG,10600 fluorescence intensity (a.u.)
14,TCTTCTTATCTCAACAATTGATCCCTCAAAGGACCCTATACGGAGTCACCTAGTGCAG,8200 fluorescence intensity (a.u.)
15,TGGCCGTTGTTGTTGTTGTTGTTGTTTATTAAAGCCGCCACGGAGTCACCTAGTGCAG,8170 fluorescence intensity (a.u.)
16,CACCCCTTTTCTCCTACTGCTATTCTTTTATCCGGTTAACCGGAGTCACCTAGTGCAG,11900 fluorescence intensity (a.u.)
17,TGTGTTGCGGTTTTTTCTATAAATTTATTCAAACTTGAAACGGAGTCACCTAGTGCAG,8060 fluorescence intensity (a.u.)
18,GAACGGTCAAACATGTGTTAAAAAGTCAACGGTGTTAAACCGGAGTCACCTAGTGCAG,9470 fluorescence intensity (a.u.)
19,CTCCCTTCTCACTTTCATCATCTCTCGTTCGGCCCATTTCCGGAGTCACCTAGTGCAG,8220 fluorescence intensity (a.u.)
20,TTTCTCCGTCGTCTTCCTCTACTGGTTCTATGTCTTCTCACGGAGTCACCTAGTGCAG,18800 fluorescence intensity (a.u.)
21,CACCCATTCGCCATCACCGCAAAATCTGCCGCCTCATTTACGGAGTCACCTAGTGCAG,8620 fluorescence intensity (a.u.)
22,CACATTCTGACACACCCGCATCTTTTGAATATCTCTATATCGGAGTCACCTAGTGCAG,8870 fluorescence intensity (a.u.)
23,CCACTAGCCAAGGCAGCCAGCCGCCCGGCCTCCCGCCGCCCGGAGTCACCTAGTGCAG,14000 fluorescence intensity (a.u.)
24,GGGTTCGATTCCCGGCTGGTGCAATTTTCGTTTTTGTCACCGGAGTCACCTAGTGCAG,8220 fluorescence intensity (a.u.)
25,AGGGACAGTTTGGTAAATTCGCATAGGAGTGCTTCTTATCCGGAGTCACCTAGTGCAG,8700 fluorescence intensity (a.u.)
26,ACAGTTCCACATCAAAACAAACCTGCTCTGTTTTTTATTCCGGAGTCACCTAGTGCAG,9200 fluorescence intensity (a.u.)
27,TCTGCGCCATCCACGCCAAGCGCGTCACCATCATGCCCAACGGAGTCACCTAGTGCAG,10200 fluorescence intensity (a.u.)

# An excerpt of these results, bar-delimited.
row | Sequence | binding signal
7 | ATCCCTAAACCACAATACCACATATGTCGATACCTCAACTCGGAGTCACCTAGTGCAG | 9100 fluorescence intensity (a.u.)
8 | TTGGGGTCGAGATATCCGGTTTTGTGGTTTAGGGTCATGTCGGAGTCACCTAGTGCAG | 9090 fluorescence intensity (a.u.)
9 | GAGCACGCCACCGCTGGCCGCCGTCCTTGGCTAGTCGACTCGGAGTCACCTAGTGCAG | 8060 fluorescence intensity (a.u.)

# In a second layout: entries from further up.
row | Sequence | binding signal
1 | GTCAAACTAGCCACATCAGCGCCACATCAGTCAAAACCGCCGGAGTCACCTAGTGCAG | 8320 fluorescence intensity (a.u.)
2 | ATTTTTTCTGTGTTTTGTAATTCTCTGTTTTACACTTCAACGGAGTCACCTAGTGCAG | 10000 fluorescence intensity (a.u.)

# Continued:

row,Sequence,binding signal
1,GTGTTGTGTGTGTCCCTCTCTTGTGATCAGGTTGCATCTACGGAGTCACCTAGTGCAG,8440 fluorescence intensity (a.u.)
2,TCCACGCCAGAATCCCTCAACCACGCCTCAGTTGCCTCTCCGGAGTCACCTAGTGCAG,9790 fluorescence intensity (a.u.)
3,CCTCCCACCTTCCCGTTTCTTCTTTCTTGCGCCGCAAGAACGGAGTCACCTAGTGCAG,8030 fluorescence intensity (a.u.)
4,TAGTTCGTGTTCATCCACAATGTTTTACTGCTGCCCTGGACGGAGTCACCTAGTGCAG,8970 fluorescence intensity (a.u.)
5,GGTTTGGGTTCCTCTCTCGTCTCGTCTGTTTTGTTTTCCCCGGAGTCACCTAGTGCAG,21900 fluorescence intensity (a.u.)
6,ATCCGAAACTCACGACACCTCTCTCTCTCTCTCCCAGCTGCGGAGTCACCTAGTGCAG,8200 fluorescence intensity (a.u.)
7,CGCGCATATATCTTCTCCCCGCTCACCACAGCCATTCGTCCGGAGTCACCTAGTGCAG,9700 fluorescence intensity (a.u.)
8,GCTAACTAGCCTGTCTTTTCTTGTGTCCTTGGGCAATTCTCGGAGTCACCTAGTGCAG,8990 fluorescence intensity (a.u.)
9,GCTTTAACTATTACTCCCTTCGTTTCAGTTTATAAGACGTCGGAGTCACCTAGTGCAG,8110 fluorescence intensity (a.u.)
10,CAAGTGTGCCTTTGTCTCTTACCAGCCAGCCATTATTCAACGGAGTCACCTAGTGCAG,8200 fluorescence intensity (a.u.)
11,TCTTTCCCACGACCACACATAAGCTTCTCCCTCGATCTCTCGGAGTCACCTAGTGCAG,8750 fluorescence intensity (a.u.)
12,CTCCGACCTTCCGCTGCTCGTTTTCCTCGTCGCCACTCCCCGGAGTCACCTAGTGCAG,9180 fluorescence intensity (a.u.)
13,GGTGGGTCCGTCCGAGTTTCATTTTTTACTACTACCTTTTCGGAGTCACCTAGTGCAG,11000 fluorescence intensity (a.u.)
14,TCGCCACCGCATCCCATATCCCTCCGCCGCGCGCGGCATGCGGAGTCACCTAGTGCAG,9630 fluorescence intensity (a.u.)
15,TGCATGTATTTGGTGGAGGGTTTTGTGGATTGGGTTCATGCGGAGTCACCTAGTGCAG,13200 fluorescence intensity (a.u.)
16,GGCTCTGCACGCTCACCACCTCATCTCTCGTTCTTACACTCGGAGTCACCTAGTGCAG,8350 fluorescence intensity (a.u.)
17,CTTCTTTCTTTGACCTTTTATTTTGCCAAATTACAGATGCCGGAGTCACCTAGTGCAG,9250 fluorescence intensity (a.u.)
18,ATATATGTCCATGGAGGAGGGTGAGGGGAGTAGTAGGGCGCGGAGTCACCTAGTGCAG,9340 fluorescence intensity (a.u.)
19,TCTGCAATAGGGTAACTTCACGATCTCAGCTGTCACTCACCGGAGTCACCTAGTGCAG,8660 fluorescence intensity (a.u.)
20,TTAAATGTTCGATGTGATAGGGTAAAAATTTTTGGGCGGGCGGAGTCACCTAGTGCAG,9660 fluorescence intensity (a.u.)
21,CATATCTTTGACCATTCGTCTTATTTAAAAACTTTTATGACGGAGTCACCTAGTGCAG,8270 fluorescence intensity (a.u.)
22,CATTAACTACATCCAGTTATCAGCCCTGTCGTTTCTCTGCCGGAGTCACCTAGTGCAG,8650 fluorescence intensity (a.u.)
23,TTTTGGGAATTGGAATTGCATATAGACGGTTTGATTTCTTCGGAGTCACCTAGTGCAG,9260 fluorescence intensity (a.u.)
24,GATGGACCCTCAACCAGCTAGCACACGCAGCTGACACACACGGAGTCACCTAGTGCAG,8210 fluorescence intensity (a.u.)
25,CATCCGTCATGCCTCACGACAAACCGCGGACGACGCGCACCGGAGTCACCTAGTGCAG,8230 fluorescence intensity (a.u.)
26,TTTCACGTCCAATATTTGACTGTTTGTCTTATGTGAAATTCGGAGTCACCTAGTGCAG,9640 fluorescence intensity (a.u.)
27,ACATATGAGCTACTTCTCTTGCATATTTGTTTCTTTGTGTCGGAGTCACCTAGTGCAG,10500 fluorescence intensity (a.u.)
